Data taken from PMC7926355.
No constants are given. Whether binding was seen depends on the method and setting.

Sequences of proteins named here, by UniProt entry; tags and fusion partners are left off.
UniProt A1A766: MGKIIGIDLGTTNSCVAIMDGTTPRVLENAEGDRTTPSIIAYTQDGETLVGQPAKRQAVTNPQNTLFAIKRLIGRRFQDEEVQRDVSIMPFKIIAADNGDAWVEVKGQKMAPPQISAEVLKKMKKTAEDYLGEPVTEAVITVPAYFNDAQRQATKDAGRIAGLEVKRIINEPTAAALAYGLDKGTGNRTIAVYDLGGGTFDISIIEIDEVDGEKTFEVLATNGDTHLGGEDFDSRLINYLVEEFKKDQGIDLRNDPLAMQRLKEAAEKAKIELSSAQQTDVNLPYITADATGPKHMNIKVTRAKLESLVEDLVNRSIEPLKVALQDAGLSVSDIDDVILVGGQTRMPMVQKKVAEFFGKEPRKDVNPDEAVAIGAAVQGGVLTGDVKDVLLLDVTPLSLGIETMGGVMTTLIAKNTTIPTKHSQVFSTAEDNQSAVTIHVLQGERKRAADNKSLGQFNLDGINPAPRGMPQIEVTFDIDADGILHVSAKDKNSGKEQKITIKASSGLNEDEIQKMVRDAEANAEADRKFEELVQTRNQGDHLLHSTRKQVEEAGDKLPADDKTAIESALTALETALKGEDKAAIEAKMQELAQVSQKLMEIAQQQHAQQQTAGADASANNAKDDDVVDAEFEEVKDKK
UniProt Q8ILC1: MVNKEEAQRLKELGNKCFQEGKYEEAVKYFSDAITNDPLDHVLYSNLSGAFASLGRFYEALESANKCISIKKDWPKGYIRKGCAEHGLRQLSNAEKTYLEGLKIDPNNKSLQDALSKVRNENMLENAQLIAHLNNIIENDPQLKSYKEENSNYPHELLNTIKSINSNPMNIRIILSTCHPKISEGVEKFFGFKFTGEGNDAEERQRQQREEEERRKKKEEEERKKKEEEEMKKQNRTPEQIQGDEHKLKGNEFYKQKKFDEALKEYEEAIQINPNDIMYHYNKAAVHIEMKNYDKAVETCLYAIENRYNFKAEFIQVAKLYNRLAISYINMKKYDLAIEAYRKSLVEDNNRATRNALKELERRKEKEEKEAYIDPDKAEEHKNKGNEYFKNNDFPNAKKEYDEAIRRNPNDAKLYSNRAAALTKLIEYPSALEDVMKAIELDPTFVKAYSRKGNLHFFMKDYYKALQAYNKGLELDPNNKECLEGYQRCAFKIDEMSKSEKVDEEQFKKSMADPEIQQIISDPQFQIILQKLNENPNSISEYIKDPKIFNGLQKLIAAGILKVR

Experiments:
[1] = molecular target: E. coli DnaK (E. coli Hsp70), wild type (E. coli) (UniProt A1A766); assay: far-Western, overlay or dot blot; both purified
[2] = molecular target: E. coli DnaK (E. coli Hsp70), wild type (E. coli) (UniProt A1A766); assay: ELISA; both purified

## Plasmodium falciparum Hsp70-Hsp90 organising protein (PfHop) (from UniProt Q8ILC1 1-564)
[1]
  binding: no binding (tested: 4 μg of purified PfHop)
[2]
  binding: no binding (tested: 0–0.5 μg PfHop)
